Series [1] can be described thus: Lambda max of yellow dye produced from Y-1 on development. Conditions: yellow dye from Y-1, blue density of about 1.0.
The nature of series [2]: Percent wash out of high-boiling solvent from films on washing in 38° C. water.

The compound `Cc1ccc(C(=O)OCCCc2ccccc2)cc1` [A3] registered a Lambda max in series [1] of 449 nm. Besides, the “% Washout 20 min 38° C.” value in series [2] came to 4.0%.

In the case of `CCCCOC(=O)c1ccccc1C(=O)OCCCC` [B1, dibutyl phthalate], the Lambda max in series [1] is given as 449 nm. Moreover, the “% Washout 20 min 38° C.” value in series [2] came to 6.2%.

The record behind these values is patent publication US6054258A, “Photographic elements containing high-boiling esters” (Eastman Kodak Company, priority 1998, dated 2000).
